The other results are listed elsewhere or left out.

Chains of the proteins cited; added tags and fusions are not shown. Lines headed by an entry give the natural chain unless they say otherwise; changes in a name come on top.
UniProt Q13191, whole entry, looked up: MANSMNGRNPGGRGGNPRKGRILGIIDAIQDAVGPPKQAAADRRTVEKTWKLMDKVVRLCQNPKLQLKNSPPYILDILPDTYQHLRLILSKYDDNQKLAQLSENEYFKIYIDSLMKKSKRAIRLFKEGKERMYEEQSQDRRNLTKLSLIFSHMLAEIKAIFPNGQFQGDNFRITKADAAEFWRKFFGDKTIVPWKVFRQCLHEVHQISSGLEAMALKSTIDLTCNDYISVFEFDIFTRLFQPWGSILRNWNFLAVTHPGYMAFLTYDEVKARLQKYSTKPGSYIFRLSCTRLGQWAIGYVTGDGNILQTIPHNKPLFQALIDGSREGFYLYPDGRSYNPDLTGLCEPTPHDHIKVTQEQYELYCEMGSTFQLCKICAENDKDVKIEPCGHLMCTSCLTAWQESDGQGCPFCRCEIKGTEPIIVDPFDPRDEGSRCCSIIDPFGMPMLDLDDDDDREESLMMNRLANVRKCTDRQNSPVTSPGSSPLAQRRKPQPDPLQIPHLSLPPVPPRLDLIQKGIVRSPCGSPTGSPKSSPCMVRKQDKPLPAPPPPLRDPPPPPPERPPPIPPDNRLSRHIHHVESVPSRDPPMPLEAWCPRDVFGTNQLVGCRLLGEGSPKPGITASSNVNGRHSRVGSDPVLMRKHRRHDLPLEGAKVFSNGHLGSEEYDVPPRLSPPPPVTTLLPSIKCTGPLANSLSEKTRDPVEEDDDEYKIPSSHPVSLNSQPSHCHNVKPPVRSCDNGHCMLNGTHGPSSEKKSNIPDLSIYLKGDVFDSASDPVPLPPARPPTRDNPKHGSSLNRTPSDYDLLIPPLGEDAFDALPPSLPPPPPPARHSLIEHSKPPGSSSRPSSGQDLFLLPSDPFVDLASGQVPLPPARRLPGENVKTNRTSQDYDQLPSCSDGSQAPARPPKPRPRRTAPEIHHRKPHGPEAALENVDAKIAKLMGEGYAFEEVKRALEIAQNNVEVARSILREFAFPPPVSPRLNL
UniProt Q5ZPR3: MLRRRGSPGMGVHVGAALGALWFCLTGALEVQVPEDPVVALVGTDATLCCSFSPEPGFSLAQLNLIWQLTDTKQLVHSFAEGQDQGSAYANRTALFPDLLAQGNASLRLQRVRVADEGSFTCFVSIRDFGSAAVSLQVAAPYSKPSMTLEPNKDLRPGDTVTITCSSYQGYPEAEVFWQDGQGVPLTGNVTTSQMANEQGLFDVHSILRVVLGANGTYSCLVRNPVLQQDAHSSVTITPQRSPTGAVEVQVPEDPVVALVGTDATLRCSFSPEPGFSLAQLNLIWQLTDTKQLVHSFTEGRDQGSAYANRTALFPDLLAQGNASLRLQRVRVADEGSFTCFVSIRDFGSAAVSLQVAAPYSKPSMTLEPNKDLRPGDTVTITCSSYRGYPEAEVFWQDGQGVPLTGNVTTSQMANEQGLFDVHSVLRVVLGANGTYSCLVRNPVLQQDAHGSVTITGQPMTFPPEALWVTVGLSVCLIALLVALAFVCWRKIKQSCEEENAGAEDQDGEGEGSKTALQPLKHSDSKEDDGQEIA
UniProt O75794: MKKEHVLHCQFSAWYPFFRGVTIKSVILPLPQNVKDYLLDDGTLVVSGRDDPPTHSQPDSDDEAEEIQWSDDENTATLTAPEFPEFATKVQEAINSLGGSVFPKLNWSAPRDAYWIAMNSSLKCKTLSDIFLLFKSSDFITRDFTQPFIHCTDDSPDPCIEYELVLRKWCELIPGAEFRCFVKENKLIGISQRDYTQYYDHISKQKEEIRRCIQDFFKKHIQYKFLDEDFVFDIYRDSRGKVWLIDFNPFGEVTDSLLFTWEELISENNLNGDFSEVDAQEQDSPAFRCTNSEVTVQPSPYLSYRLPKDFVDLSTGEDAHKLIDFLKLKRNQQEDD
UniProt P42574: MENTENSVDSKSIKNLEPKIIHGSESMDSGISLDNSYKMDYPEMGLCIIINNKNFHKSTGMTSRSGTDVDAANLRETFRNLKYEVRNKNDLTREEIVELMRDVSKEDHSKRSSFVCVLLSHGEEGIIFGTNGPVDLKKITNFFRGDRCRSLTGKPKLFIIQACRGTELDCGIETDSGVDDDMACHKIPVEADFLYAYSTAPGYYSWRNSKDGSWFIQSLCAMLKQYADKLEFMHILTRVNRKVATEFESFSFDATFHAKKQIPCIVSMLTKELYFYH
UniProt Q8N163, whole entry, looked up: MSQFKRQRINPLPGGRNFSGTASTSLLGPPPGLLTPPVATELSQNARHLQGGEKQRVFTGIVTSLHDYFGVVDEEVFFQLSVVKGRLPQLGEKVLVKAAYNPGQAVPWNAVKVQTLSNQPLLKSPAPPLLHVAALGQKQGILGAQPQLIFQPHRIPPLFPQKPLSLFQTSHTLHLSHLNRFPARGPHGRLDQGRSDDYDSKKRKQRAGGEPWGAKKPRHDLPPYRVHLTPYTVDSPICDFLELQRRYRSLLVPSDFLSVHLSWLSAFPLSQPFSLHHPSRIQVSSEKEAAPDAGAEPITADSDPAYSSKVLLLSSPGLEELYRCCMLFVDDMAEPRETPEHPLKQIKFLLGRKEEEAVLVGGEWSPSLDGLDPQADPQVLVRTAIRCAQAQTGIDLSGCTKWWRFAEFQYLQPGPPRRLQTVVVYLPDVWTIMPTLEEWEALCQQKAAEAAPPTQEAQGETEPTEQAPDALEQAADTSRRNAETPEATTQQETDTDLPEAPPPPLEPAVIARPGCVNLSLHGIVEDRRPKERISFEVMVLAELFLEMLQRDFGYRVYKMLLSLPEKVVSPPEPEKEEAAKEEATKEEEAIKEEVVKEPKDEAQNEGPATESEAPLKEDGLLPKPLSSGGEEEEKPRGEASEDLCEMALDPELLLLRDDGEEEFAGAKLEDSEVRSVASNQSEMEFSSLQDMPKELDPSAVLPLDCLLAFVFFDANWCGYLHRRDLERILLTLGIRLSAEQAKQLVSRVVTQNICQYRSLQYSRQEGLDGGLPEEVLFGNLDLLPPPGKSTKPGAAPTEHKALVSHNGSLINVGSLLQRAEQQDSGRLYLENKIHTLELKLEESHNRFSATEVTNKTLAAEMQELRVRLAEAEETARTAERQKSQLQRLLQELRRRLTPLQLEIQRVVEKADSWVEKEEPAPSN
UniProt Q8ND76: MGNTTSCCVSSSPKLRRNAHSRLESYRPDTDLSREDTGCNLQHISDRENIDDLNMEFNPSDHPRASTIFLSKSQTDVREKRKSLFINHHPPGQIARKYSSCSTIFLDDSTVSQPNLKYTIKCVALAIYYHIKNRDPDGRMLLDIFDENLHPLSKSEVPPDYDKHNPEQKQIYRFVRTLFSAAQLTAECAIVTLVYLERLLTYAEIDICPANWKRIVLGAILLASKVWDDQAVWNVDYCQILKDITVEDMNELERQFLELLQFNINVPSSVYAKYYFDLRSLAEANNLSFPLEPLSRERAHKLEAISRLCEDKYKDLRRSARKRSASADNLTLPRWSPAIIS
UniProt P55212: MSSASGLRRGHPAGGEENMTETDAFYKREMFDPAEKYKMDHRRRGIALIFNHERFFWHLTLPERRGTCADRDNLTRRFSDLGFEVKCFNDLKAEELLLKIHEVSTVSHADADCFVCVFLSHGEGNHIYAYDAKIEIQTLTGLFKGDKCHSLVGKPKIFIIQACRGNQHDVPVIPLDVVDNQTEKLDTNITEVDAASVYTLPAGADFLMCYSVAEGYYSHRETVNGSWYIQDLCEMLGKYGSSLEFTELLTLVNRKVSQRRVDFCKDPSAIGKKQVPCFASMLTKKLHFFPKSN
UniProt P34810: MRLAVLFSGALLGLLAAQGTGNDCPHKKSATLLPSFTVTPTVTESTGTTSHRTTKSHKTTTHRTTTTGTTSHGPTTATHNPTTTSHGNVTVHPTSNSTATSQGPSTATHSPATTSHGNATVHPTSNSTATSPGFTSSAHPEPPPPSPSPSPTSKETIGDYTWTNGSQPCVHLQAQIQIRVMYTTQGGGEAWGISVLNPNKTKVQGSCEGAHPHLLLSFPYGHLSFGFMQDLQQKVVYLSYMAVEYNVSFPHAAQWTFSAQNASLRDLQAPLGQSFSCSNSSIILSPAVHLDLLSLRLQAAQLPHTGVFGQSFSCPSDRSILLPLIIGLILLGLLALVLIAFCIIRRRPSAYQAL
UniProt O15234, whole entry, looked up: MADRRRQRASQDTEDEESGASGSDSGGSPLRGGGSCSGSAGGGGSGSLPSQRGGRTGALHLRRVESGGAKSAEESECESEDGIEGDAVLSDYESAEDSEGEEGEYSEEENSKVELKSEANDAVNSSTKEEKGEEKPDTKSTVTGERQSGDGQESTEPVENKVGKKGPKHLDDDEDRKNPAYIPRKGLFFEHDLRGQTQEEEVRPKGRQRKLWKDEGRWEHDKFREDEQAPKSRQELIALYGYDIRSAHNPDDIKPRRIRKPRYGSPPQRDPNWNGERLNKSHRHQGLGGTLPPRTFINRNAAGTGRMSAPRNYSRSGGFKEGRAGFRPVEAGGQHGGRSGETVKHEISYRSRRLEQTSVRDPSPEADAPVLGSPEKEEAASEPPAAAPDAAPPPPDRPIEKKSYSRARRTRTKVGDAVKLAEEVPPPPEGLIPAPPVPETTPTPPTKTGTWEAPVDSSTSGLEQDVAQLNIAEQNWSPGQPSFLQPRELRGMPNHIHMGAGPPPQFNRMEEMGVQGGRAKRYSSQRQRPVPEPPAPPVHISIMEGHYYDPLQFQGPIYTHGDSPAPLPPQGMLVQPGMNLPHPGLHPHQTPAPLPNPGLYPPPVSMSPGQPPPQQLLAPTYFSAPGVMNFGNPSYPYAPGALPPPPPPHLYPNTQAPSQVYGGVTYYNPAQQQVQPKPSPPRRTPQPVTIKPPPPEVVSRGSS
UniProt O75909: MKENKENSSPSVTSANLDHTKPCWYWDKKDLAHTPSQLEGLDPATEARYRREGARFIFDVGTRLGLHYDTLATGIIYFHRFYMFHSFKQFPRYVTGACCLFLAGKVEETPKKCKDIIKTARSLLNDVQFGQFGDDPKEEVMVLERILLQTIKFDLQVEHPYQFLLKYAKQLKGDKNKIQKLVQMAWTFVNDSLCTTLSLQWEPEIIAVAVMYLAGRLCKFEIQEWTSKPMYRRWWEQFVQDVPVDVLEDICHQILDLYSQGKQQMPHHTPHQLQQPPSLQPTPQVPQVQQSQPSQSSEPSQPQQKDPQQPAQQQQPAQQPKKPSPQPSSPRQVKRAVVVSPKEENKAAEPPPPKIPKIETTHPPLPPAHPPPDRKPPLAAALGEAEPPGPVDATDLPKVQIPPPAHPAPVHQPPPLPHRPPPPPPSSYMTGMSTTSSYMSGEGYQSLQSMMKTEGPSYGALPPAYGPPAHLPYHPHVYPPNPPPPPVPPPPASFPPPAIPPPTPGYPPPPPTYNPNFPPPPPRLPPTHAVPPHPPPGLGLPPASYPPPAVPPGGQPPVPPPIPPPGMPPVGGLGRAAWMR
UniProt Q86X55: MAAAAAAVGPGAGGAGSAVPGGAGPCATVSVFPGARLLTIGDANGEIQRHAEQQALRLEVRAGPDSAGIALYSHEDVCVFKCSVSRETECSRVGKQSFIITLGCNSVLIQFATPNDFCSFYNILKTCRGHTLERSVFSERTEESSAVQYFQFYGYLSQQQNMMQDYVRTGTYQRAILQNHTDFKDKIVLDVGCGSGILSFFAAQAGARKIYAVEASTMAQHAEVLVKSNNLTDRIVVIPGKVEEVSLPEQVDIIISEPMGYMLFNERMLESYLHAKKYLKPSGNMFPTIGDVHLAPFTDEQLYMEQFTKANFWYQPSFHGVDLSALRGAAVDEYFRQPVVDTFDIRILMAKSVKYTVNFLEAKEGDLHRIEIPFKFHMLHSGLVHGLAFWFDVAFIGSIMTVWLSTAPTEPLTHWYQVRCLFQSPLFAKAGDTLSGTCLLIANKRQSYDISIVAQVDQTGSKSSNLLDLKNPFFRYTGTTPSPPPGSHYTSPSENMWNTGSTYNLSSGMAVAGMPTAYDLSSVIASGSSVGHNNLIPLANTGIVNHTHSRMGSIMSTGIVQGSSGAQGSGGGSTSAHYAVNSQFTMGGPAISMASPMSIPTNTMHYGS
UniProt Q8TCZ2: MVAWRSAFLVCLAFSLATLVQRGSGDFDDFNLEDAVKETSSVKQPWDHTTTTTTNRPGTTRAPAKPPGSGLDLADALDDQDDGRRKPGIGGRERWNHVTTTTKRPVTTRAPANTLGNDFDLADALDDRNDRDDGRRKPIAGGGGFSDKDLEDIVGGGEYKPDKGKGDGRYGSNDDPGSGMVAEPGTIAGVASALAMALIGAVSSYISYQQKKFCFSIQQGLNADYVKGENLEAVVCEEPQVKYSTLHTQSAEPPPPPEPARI

Compound in the assay: C1=CC=C(C=C1)[C@H](COC2=CC3=C(C=C2)NC(=O)N3)NC(=O)C4=CC=CN(C4=O)CC5=CC(=C(C=C5)F)F
As to the kind of experiment: log2 fold change, soluble protein after heating vs DMSO (PISA); higher = thermal stabilisation; K562 cells, 10 uM, 30 min; active = over 0.2 and 3.5 SD of the protein, either way, in both replicates (recomputed). In a few lines: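 Soluble protein was defined as the supernatant after 21,000xg for 90 min. It came from K562 cells at 2×10^6 cells/mL given 10 μM compound for 30 min, heated in aliquots for 3 min across 48°C-58°C, pooled, and extracted in PBS with 0.5% NP-40 at 4°C, and was quantified by TMTpro 16plex LC-MS/MS with equalised channel sums. Thermal stability against control samples, from duplicates, is reported as log2 fold change.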
As to CBLB (UniProt Q13191), the log2 fold change was inactive: -0.048.
For CD276 (UniProt Q5ZPR3) the value was inactive: 0.122; for CDC123 (UniProt O75794), inactive: -0.036.
For CDC16 (UniProt Q13042) the value was inactive: 0.016.
Regarding CASP3 (UniProt P42574), the log2 fold change is inactive: 0.018.
Regarding CCAR2 isoform 2 (UniProt Q8N163), the log2 fold change is inactive: -0.057.
For CARNMT1 (UniProt Q8N4J0) the value was inactive: -0.088.
For CCNY (UniProt Q8ND76) the value was inactive: 0.
As for CASP6 (UniProt P55212), the log2 fold change was inactive: -0.027.
On to CD68 (UniProt P34810), for which the log2 fold change was inactive: 0.021.
For CBX3 (UniProt B8ZZ43) the value was inactive: 0.168; for CASC3 (UniProt O15234), inactive: 0.02; for CCNK isoform 4 (UniProt O75909), inactive: 0.045.
For the target CARM1 (UniProt Q86X55), the log2 fold change was inactive: 0.01.
For CCDC93 (UniProt Q567U6) the value was inactive: -0.099.
Take CD99L2 isoform 5 (UniProt Q8TCZ2): the log2 fold change is inactive: 0.07.

Source of the values: the supplement of paper PMC10849652.
